One molecule from publication PMC8691648, “Heterophilic and homophilic cadherin interactions in intestinal intermicrovillar links are species dependent” (PLoS Biology, 2021) can be followed below.

For the assay, the target named is mm PCDH24 EC1-MAD10Fc (mouse) (UniProt E9Q7P9). Nature of the assay: bead aggregation assay; homophilic; Protein G Dynabeads coated with one Fc fusion captured from concentrated serum-free medium and washed; 50 mM Tris pH 7.5, 100 mM NaCl, 10 mM KCl, 0.2% BSA, 2 mM CaCl2; 60 min on a depression slide, then rocking 1 to 2 min; both purified.

No constants are given. Whether binding was seen depends on the method and setting.

B1: mm PCDH24 EC1-MAD10Fc (Fc fusion, UniProt E9Q7P9 21-1152)
chain: NSPPSFGVNMTLVTLPEDLPVGAVAFWLVATDSDNDHLTYGISGPNASYFSVNANTGEVKLASPLDFETVPFFKITISTSDGLNIRTAEMQVIVEDRNDNIPVFLNTEFSTSINETLPVGSVVFSVLAEDKDTGTAGLVQYFIEKVIPSTANSNNLFRILENGSIVLNDTLSYNNKSAFYQLELKACDSGGILDNKPKTQCSQPVFVSISVIDEPDLDPRFIREFYSASVAEDATLGTSVLTVEAVDSDKGINDIVTYSVSNSTRPGWFDIREDGVIFVNGSLDREQLLLENEEVQIQVTATEKNLNIYGQEAKASMWVTIRVTDVNDHKPEFYNCSLPGCSFSPQEAQVNFIGYVDEHASARISIDGLTMVAYDPDQGDNGTFLLSLNGQDAEAFNVSPERAAGSVSVQVVVRNSEMVDYEKETVMVVEVVATDSVSNNYSVATVTIHLRNINDHRPVFSQSLYELTVPEHCPTGYLVTDKIQATDLDGDEWGPITYSLLPGNGADLFEVEPNSGNLTVKNGTLLDREKQAVYYLTLQATDGGNQSTTTALEITLLDINDNPPVVRGSYNVFVPEENGNVSVTIQAYDDDQPDTNNSLLVFSLLPGPYSSNFSLDPNTGLLRNLGPLDREAIDPALEGRIVLTVIVADCGEPSLSTNVNVTITVEDINDNLPVFNQSYEFSVWERVPGAWVGTVKAWDADQTAANNRISFSLSGTGANNFILQGNVLEQGWAEGSLWLLPDVRLDYETQKFFHLTVSAENPGPQGLDSTANVTVTVMDVNDEPPTLDAASLQAISVTENGSEHGQVTRVIAQDVDTAALLRIELVDVICTKAGVDVGSVCHGWFSVDGNGSVYINQSEAIDYEACHLVTLVVRAYDLNTDPGFDAYSSNGSLLINIKDKNDNAPYFLPNNQTFVIIPELVLPNQQVASVQARDEDSEDNGIIMFSILKAEFVRKDGTSNPVQVFRITRSVEAGLFTGSIELVTNLDSTIQGTYQVTVQAQDQPTLGPALETQTTLNLFTVDQSYRVRLQFSTSKEDVGANMEEIKEALIQATRTSVYVVTIQNIDSTARARASSYMDAYFVFSNGTALTLTELNMMIRKDQDALRQLLQLGLVVVSSQESQEPDQQKLLTSTVPRARDPPV
Consider B1, for which the binding entry was “no binding”.
